# Laboratory results as given in PubChem BioAssay AID2284357 (EPA ToxCast).
# Inconclusive results, whose numbers are uncertain, are shown. Where the call is inconclusive, the potency comes from a doubtful curve fit.
# System: zebrafish Androgen Receptor (AR), gene 100005148
# Assay: ATG_zfAR_EcoTox2: Attagene TRANS-FACTORIAL EcoTox-2 HepG2 Assay for zebrafish Androgen Receptor (AR); active = hit-call score of the fitted dose curve at least 0.9, where 1 is the maximum; inconclusive = response in the unintended direction; inactive = score below 0.9
# Method: ATG_EcoTox2 is a cell-based, multiplexed assay created by modifying the existing Attagene TRANS-FACTORIAL system to include a panel of nuclear receptors from some or all the following species: human (Homo sapiens), african clawed frog (Xenopus laevis), rainbow trout (Oncorhynchus mykiss), japanese medaka (Oryzias latipes), and zebrafish (Danio rerio). The ECOTOX2-FACTORIAL format uses HepG2, a human liver cell line, with measurements taken at 24 hours after chemical dosing in a 24-well plate. ATG_zfAR_EcoTox2 is one of 29 assay components calculated in the ATG_EcoTox2 assay. It is designed to make measurements of mRNA induction, a form of inducible reporter, as detected with fluorescence intensity signals by Reverse transcription polymerase chain reaction (RT-PCR) and Capillary electrophoresis technology.The assay endpoint ATG_zfAR_EcoTox2 was analyzed in the positive analysis fitting direction relative to DMSO as the negative control and baseline of activity. Using a type of inducible reporter, measures of mRNA for gain-of-signal activity can be used to understand the reporter gene at the transcription factor-level as they relate to the gene AR. Furthermore, this assay endpoint can be referred to as a primary readout, because this assay has produced multiple assay endpoints where this one serves a reporter gene function. […]
smiles,measurement,value
[Cl][Sn]([c]1ccccc1)([c]1ccccc1)[c]1ccccc1,AC50,inconclusive: 1.39 µM
